Results from US7989420B2, “Smooth muscle relaxation” (New York Medical College, priority 2006, dated 2011).
At least one structure is not confirmed: it was looked up by name or label, or the drawing left a doubt.

Assays:
[1] = system: bovine pulmonary arteries (BPA); assay: Protoporphyrin IX-associated tissue fluorescence in organ cultured BPA rings; type: cell-based; details: organ culture with 100 μM deferoxamine alone
Method: (§1) Organoid Culture Isolated Arteries for Heme Modulation. Intralobar BPA were isolated from slaughterhouse-derived bovine calf lungs, cleaned from surrounding tissue, and placed in 37° C. Dulbecco's Modified Eagle Medium (DMEM) containing 10% fetal bovine serum, penicillin, streptomycin, and fungizone (complete media). The arteries were isolated and cut into rings ˜2 mm in diameter and width, and the endothelium was removed by gentle rubbing of the lumen. Various compounds (i.e. ALA, FeSO4(Fe), deferoxamine) were added as described in the Results to various experimental groups, and these arteries were organ cultured overnight for 24 h in complete media in a 37° C.-5% CO2 incubator. […]
Determination Changes in Protoporphyrin 1× and Heme Levels. Methods for the detection of protoporphyrin IX tissue fluorescence developed for the detection in cancerous cells with tissue depths of up to several millimeters (27) were adapted for detecting changes in the endogenous levels of protoporphyrin IX in BPA rings which were organ cultured with ALA. […] Increases in protoporphyrin IX were measured using an excitation wavelength of 528±20 nm and emission of 620±40 nm in intact vessels. […] Data are reported in the arbitrary fluorescence units measured (AU), after subtraction of the low levels of background fluorescence observed in the absence of BPA.

[2] = system: bovine pulmonary arteries (BPA); assay: Isometric force generation to serotonin (5-HT) in organ cultured BPA rings; type: cell-based
Method: as §1
Studies on the Regulation of Contractile Function. […] Changes in force were recorded on a Grass polygraph (model 7), while vessels were incubated in 10-ml baths (Metro Scientific), which were individually thermostated (37° C.) in Krebs buffer gassed with 21% O2-5% CO2 (balance N2) in the absence of compounds used to modulate BPA protoporphyrin IX levels. […] The effects of ODQ on relaxation to NO was determined by first contracting organ cultured control and ODQ-treated BPA with 1 μM 5-HT (after the initial exposure to increasing concentrations of 5-HT and a 30 min equilibration in Krebs).

CC(=O)N(O)CCCCCNC(=O)CCC(=O)N(O)CCCCCNC(=O)CCC(=O)N(O)CCCCCN [deferoxamine]
basal levels of protoporphyrin IX-associated fluorescence [1]: did not alter the basal levels
contraction to 5-HT ([2]; 100 μM deferoxamine in the presence of 10 μM ALA): markedly reduced the contraction to 5-HT
contraction to 5-HT ([2]; organ culture with 100 μM deferoxamine alone): did not alter contraction to 5-HT
